Our source for the normalized growth values is the supplement of paper PMC6331611.

Molecules are shown by their SMILES. ± gives the standard deviation of the averaged measurements. Over roughly 1,600 compounds, “normalized growth (OD600, IQM-normalized) in LPM” has its median near 1; the lowest 2% begin near 0.014. Some of the results follow.

The test system of the assay is Salmonella enterica serovar Typhimurium SL1344. In words: normalized growth (OD600, IQM-normalized) in LPM (fraction of plate interquartile mean); higher = more bacterial growth (less inhibition). The following applies: LPM pH 5.8; 10 µM; 16 h.
In turn, `OCCN(CCO)c1nc(N2CCCCC2)c2nc(N(CCO)CCO)nc(N3CCCCC3)c2n1` returned a normalized growth of 1.02 ± 0.037.
For `CN1CCN(C(c2ccccc2)c2ccccc2)CC1` the value was 1.07 ± 0.037; for `C[C@]12CC[C@@H]3c4ccc(OC(=O)c5ccccc5)cc4CC[C@H]3[C@@H]1CC[C@@H]2O`, 0.779 ± 0.061.
To `O=C(CCCN1CCN(c2ccccn2)CC1)c1ccc(F)cc1` belongs 1.1 ± 0.056; to `C[C@H](CCC(=O)O)[C@H]1CC[C@H]2[C@@H]3[C@@H](O)C[C@@H]4C[C@H](O)CC[C@]4(C)[C@H]3CC[C@]12C`, 0.927 ± 0.084.
For `CC1CC(OC(=O)c2ccccc2O)CC(C)(C)C1` (configuration not stated) the value was 1.03 ± 0.028; for `NC[C@@H]1O[C@@H](O[C@H]2[C@H](O)[C@@H](O[C@H]3O[C@H](CO)[C@@H](O)[C@H](N)[C@H]3O)[C@H](N)C[C@@H]2N)[C@@H](O)[C@H](O)[C@H]1O`, 1.03 ± 0.017.
`N[C@@H](Cc1cc(I)c(Oc2ccc(O)c(I)c2)c(I)c1)C(=O)O` [LIOTHYRONINE (L- isomer) SODIUM] registered a normalized growth of 1.06 ± 0.044.
`N[C@@H](Cc1cc(I)c(Oc2ccc(O)c(I)c2)c(I)c1)C(=O)O` came in with a normalized growth of 1.63 ± 0.14.
For `CN1CCC(=C2c3ccccc3Sc3ccccc32)CC1` the value was 1.09 ± 0.096.
For `Nc1c2ccccc2nc2ccccc12` the value was 0.943 ± 0.018; for `NS(=O)(=O)c1cc2c(cc1C(F)(F)F)NCNS2(=O)=O`, 0.984 ± 0.035.
With `C=C(C)[C@H]1CC=C(C)CC1`, the normalized growth turned out to be 0.978 ± 0.024.
The compound `NC(=O)CCCCC1CCSS1` (configuration not stated) registered a normalized growth of 0.967 ± 0.061.
To `N[C@@H](Cc1c[nH]c2ccccc12)C(=O)O` belongs 1.04 ± 0.095; to `O=C(OOC(=O)c1ccccc1)c1ccccc1`, 1.08 ± 0.046.
As to `CCC1(C)OC(=O)N(C)C1=O` (configuration not stated), the normalized growth turned out to be 1.05 ± 0.036.
Compound `CC(O)Cn1cnc2c1c(=O)n(C)c(=O)n2C` (configuration not stated) yielded a normalized growth of 0.921 ± 0.031.
Take `CS(=O)(=O)OCCCCOS(C)(=O)=O`: the normalized growth was found to be 0.919 ± 0.042.
For `Cc1c(NC(=O)c2cccnc2)c(=O)n(-c2ccccc2)n1C` the value was 1.03 ± 0.04; for `CC[C@@H]1C(=O)OC[C@@H]1Cc1cncn1C`, 0.92 ± 0.024; for `CN1C(=O)CC[C@H]1c1cccnc1`, 1 ± 0.011.
To `c1ccc2c(CC3=NCCN3)cccc2c1` belongs 0.783 ± 0.058; to `CC(=O)OCC(=O)[C@@]12OC(C)(C)O[C@@H]1C[C@H]1[C@@H]3C[C@H](F)C4=CC(=O)C=C[C@]4(C)[C@@]3(F)[C@@H](O)C[C@@]12C`, 1.18 ± 0.12.
On to `CCN(CC)CC(=O)Nc1c(C)cccc1C`, for which the normalized growth was found to be 1.03 ± 0.045.
Take `O=C1NS(=O)(=O)c2ccccc21`: the normalized growth turned out to be 1.07 ± 0.012.
For `CC(=O)CC(c1ccccc1)c1c(O)c2ccccc2oc1=O` (configuration not stated) the value was 1.08 ± 0.036; for `O=c1oc2c(O)c(O)cc3c(=O)oc4c(O)c(O)cc1c4c23`, 0.455 ± 0.031; for `COc1cccc2c1C(=O)c1c(O)c3c(c(O)c1C2=O)C[C@@](O)(C(C)=O)C[C@@H]3O[C@H]1C[C@H](N)[C@H](O)[C@H](C)O1`, 0.946 ± 0.016.
For `Cc1cn([C@H]2C=C[C@@H](CO)O2)c(=O)[nH]c1=O` the value was 1.1 ± 0.09; for `CC(=O)NS(=O)(=O)c1ccc(N)cc1`, 0.99 ± 0.04; for `C=CC1=C(C(=O)O)N2C(=O)[C@@H](NC(=O)/C(=N\O)c3csc(N)n3)[C@H]2SC1`, 0.0112 ± 0.00049.
To `CN1C(CCl)Nc2cc(Cl)c(S(N)(=O)=O)cc2S1(=O)=O` (configuration not stated) belongs 1.08 ± 0.033.
With `OCc1ccccc1O[C@@H]1O[C@H](CO)[C@@H](O)[C@H](O)[C@H]1O`, the normalized growth stood at 0.988 ± 0.065.
For `Nc1cc(N2CCCCC2)nc(N)[n+]1[O-]` the value was 1.01 ± 0.051; for `C[C@]12CCC(=O)C=C1[C@@H]1C[C@@H]1[C@H]1[C@@H]3[C@@H]4C[C@@H]4[C@@]4(CCC(=O)O4)[C@@]3(C)CC[C@@H]12`, 1.07 ± 0.069.
For `O=C(O)c1ccccc1OP(=O)(O)O` the value was 0.83 ± 0.1; for `Cc1ncc([N+](=O)[O-])n1CC(C)O` (configuration not stated), 1.05 ± 0.015.
The compound `C/C=C(/C(=C/C)c1ccc(O)cc1)c1ccc(O)cc1` returned a normalized growth of 1.04 ± 0.035.
To `CC1=C(/C=C/C(C)=C/C=C/C(C)=C/CO)C(C)(C)CCC1` belongs 0.731 ± 0.088.
To `CC(=O)NCCCCCC(=O)O` belongs 1.11 ± 0.034.
In turn, `O=c1n(CCCN2CCN(c3cccc(Cl)c3)CC2)nc2ccccn12` had a normalized growth of 1.03 ± 0.052.
To `O=C(O)c1cc(=O)[nH]c(=O)[nH]1` belongs 1.02 ± 0.041; to `C=C[C@H]1CN2CC[C@H]1C[C@H]2[C@H](O)c1ccnc2ccc(OC)cc12`, 1.03 ± 0.018; to `CC1(C)S[C@@H]2[C@H](NC(=O)[C@H](N)c3ccccc3)C(=O)N2[C@H]1C(=O)O`, 0.928 ± 0.07.
To `Cc1nc2ccccn2c(=O)c1CCN1CCC(C(=O)c2ccc(F)cc2)CC1` belongs 0.979 ± 0.039; to `O=C(CCNNC(=O)c1ccncc1)NCc1ccccc1`, 1.067 ± 0.0068.
